# Measurements taken from the supplement of paper PMC3334620.
# Whole data set: some 33,000 sequences, median “E-score (-0.5 to 0.5)” near -0.016, cut for the highest 2% near 0.3. Some of the results follow.
# Molecular target: T1, Yer184c (UniProt P39961)
# T1 sequence: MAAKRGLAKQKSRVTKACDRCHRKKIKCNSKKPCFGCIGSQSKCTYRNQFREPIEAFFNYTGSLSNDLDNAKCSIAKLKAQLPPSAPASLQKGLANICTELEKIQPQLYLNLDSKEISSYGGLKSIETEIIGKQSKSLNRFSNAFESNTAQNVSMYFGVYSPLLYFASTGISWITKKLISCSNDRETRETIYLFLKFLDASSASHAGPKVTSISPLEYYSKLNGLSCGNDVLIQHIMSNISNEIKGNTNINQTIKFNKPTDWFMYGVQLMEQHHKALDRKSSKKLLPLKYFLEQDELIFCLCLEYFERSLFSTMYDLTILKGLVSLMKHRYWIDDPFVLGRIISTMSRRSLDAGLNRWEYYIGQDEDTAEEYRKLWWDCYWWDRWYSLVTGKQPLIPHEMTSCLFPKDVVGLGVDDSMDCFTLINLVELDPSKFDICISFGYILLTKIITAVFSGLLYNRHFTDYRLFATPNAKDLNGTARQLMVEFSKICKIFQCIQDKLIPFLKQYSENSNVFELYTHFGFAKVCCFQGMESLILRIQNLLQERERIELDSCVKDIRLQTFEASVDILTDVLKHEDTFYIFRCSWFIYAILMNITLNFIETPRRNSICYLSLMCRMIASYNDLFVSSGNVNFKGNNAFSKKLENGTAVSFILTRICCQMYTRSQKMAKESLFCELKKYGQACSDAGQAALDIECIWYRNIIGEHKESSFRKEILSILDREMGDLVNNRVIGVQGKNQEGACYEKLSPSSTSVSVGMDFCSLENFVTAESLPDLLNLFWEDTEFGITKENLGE
# Experiment: PBM E-score (8-mer binding enrichment) (E-score (-0.5 to 0.5)); higher = stronger / more preferred TF binding
# Conditions: protein concentration: 100 nM; construct: GST-full length
# Outline: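 Each ungapped eight-base word and its reverse complement, pooled, received an E-score from the Universal PBM Analysis Suite. Underlying scans, normalised with masliner, recorded fluorescent anti-GST bound to GST-tagged yeast transcription factors. These were applied at about 100-200 nM to universal all-10-mer Agilent arrays double-stranded by primer extension.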
row,Sequence,PBM E-score
1,ATAACTCG,0.177
2,AGCGCGCA,0.16
3,AATCCCTC,-0.0459
4,CGAGCTTC,0.197
5,CATTTGCA,0.0176
6,AAGTTGAA,0.0794
7,CCATACTC,-0.196
8,AGAACCTA,-0.0786
9,ATGTCTCG,-0.135
10,AGTTCAAG,0.213
11,ACCATCTA,-0.209
12,GCCTATGA,-0.0701
13,GTCACGCA,-0.211
14,ACCACCGG,0.19
15,CACCACTC,0.087
16,CAGCAAGC,-0.339
17,ACTCACTC,0.0279
18,AGCGGCAA,0.067
19,AATTGAAC,-0.047
20,GAGCCCCA,-0.266
21,CCATACAG,-0.247
22,ACCCCTGG,-0.271
23,ACTATAGA,0.0663
24,GGTCACGA,-0.167
25,CGGCAGAA,0.181

row,Sequence,PBM E-score
1,TGGAACCA,0.138
2,CAAGGTGA,-0.164
3,ATAACCGA,0.0743
4,GCAGTGCC,-0.0882
5,ATATGTCA,0.137
6,AGATTCCT,-0.215
7,GCCTATAC,-0.197
8,CAAGTAAG,-0.0398
9,AAACGATT,0.0499
10,CAGCGAGG,-0.218
11,GCATCTGA,-0.246
12,CCATTTGC,-0.0263
13,ACGAACCA,0.175
14,GAGTGAGA,-0.00227
15,ATAGCCAT,-0.0685
16,AGTTGGGA,-0.158
17,CTACCAGA,-0.027
18,ACGACACA,0.0328
19,ATAGCTCG,0.0146
20,CTGATGAA,-0.113
21,AACCTGTC,-0.172
22,CGCGTTCC,0.11
23,ATTCGACC,-0.122
24,TGTAATAA,0.109
25,TCACAAGA,-0.0427

row,Sequence,PBM E-score
1,ATGCGTAC,0.00954
2,GTTTGCGA,0.0727
3,CGCCGAAC,0.345
4,CGCAGCCA,-0.159
5,CTGTTTAC,0.0661
6,ACTCTGCC,-0.135
7,ACCGAGAA,0.282
8,CTCCTAAC,-0.169
9,CATGGAAA,0.177
10,ACAGCAGG,0.00933
11,AATCATCA,0.0958
12,CCACGCGG,-0.0278
13,CCCATTAA,-0.26
14,GAGTGGGA,-0.0887
15,GCTATTTA,0.00211
16,GAAGCATA,0.00797
17,ATGACGGA,0.198
18,ACGCACTG,-0.142
19,AAAAGACA,0.171
20,AACACGTA,0.0731
21,GACCGTCC,0.016
22,AACGTAGG,-0.213
23,CCAAACAG,-0.157
24,GAGTAGAC,0.0132
25,CAAAGCTC,-0.087

row,Sequence,PBM E-score
1,GAGCGCTA,-0.0744
2,AGTGACAT,-0.0178
3,GCCAGGAA,-0.0728
4,AATTCATA,0.161
5,CCAGTTAA,0.184
6,GTTATCCA,0.0792
7,CCATAGAC,-0.204
8,AAGCCCAT,-0.276
9,AAGGCCAA,-0.188
10,AACATCAT,0.0556
11,CCTATTGA,-0.0147
12,AGACCTAT,0.0227
13,CGGGTCAG,0.211
14,CGCGAAAG,0.0067
15,CTTACTAA,0.0659
16,GATGAGAC,0.0726
17,CTGCCTTC,-0.208
18,GCTCACCC,-0.0666
19,AAGCGAAG,-0.0615
20,ATGTCTTG,-0.164
21,AGTGAATG,0.059
22,ACAATCAT,0.0332
23,GCGCAAGA,0.188
24,TACGATCA,-0.0538
25,CGTGTATA,-0.0305

row,Sequence,PBM E-score
1,ATAGCGCA,-0.208
2,AGGCGTCC,-0.115
3,GGCGGAAC,0.199
4,CATCCAGC,0.0644
5,CCATGGCC,-0.171
6,AACAAAAG,0.214
7,GAGCTAGA,-0.218
8,GACTCTTA,-0.0537
9,CCCTGAAC,0.0873
10,CTCTGAGA,-0.222
11,ATTCATAG,-0.0217
12,GCTTGTAC,0.00313
13,CAATTGGC,-0.0196
14,ACCGAACA,0.259
15,CCGGAGCA,0.27
16,TGTACAAA,0.0948
17,AGCTCTGC,-0.361
18,AGCTTGCG,-0.0182
19,AATGTAGA,-0.00883
20,AGAGTTAG,-0.0311
21,CTGTATAA,-0.0127
22,GACATAGA,-0.0364
23,CTCAAAAG,0.0257
24,CGTATGCC,-0.126
25,TACCGCCA,0.0022

row,Sequence,PBM E-score
1,TCCATTAA,0.0096
2,GCGCCAGA,-0.0326
3,AAAGTGCG,-0.041
4,GTATCCAC,-0.0729
5,TTAGCAAA,0.0757
6,CTGAGAAG,-0.168
7,ATTGCCCA,-0.102
8,GACGGAGA,0.17
9,ACTAACCC,-0.0862
10,AGTCATCG,-0.0837
11,TCGTGTAA,0.0721
12,AAATTAAT,0.226
13,TGACGCCA,-0.18
14,GAGCCGAC,0.0364
15,CGCCTATA,-0.126
16,GCCTTAGA,-0.0429
17,CCTACACC,-0.309
18,CATATGGA,-0.0756
19,CCGGTAGG,0.0264
20,GCTTCTCA,-0.146
21,CACTCGGC,0.331
22,AGTCTTTC,-0.04
23,CCTCGGGA,0.00362
24,AACTACTC,0.175
25,AACTTTAC,0.0892

row,Sequence,PBM E-score
1,ATGCACCA,-0.138
2,AAGCGAAT,0.114
3,GTACCACA,0.0348
4,CGGGCAAC,0.0952
5,CATAATAG,0.0861
6,AGCTTCAT,0.112
7,CCATATCA,0.0317
8,CGACCCGC,-0.0185
9,ACGCCTGG,-0.117
10,GTTTTTTA,0.15
11,TAATTGAA,0.0804
12,CCAGCGCC,-0.184
13,AGACGAAA,0.219
14,AATCCCAT,-0.136
15,GATCCCGC,0.0602
16,CGAGATCG,0.0842
17,AAGATGCA,-0.127
18,CCGAGTCC,0.244
19,CGCGTCCA,0.0157
20,GGATACCC,-0.0888
21,CGCCTTTC,-0.0663
22,ATAAATGA,0.137
